Data: PMC7987339
The exact form of at least one protein or probe is not confirmed. At least one verdict was read from the data and is not stated in words by the source.

The chains behind the UniProt entries cited, without tags or fusion partners. Where a name states a change or a piece, a line headed by the entry shows the natural chain unless it says otherwise.
UniProt P0A6X3: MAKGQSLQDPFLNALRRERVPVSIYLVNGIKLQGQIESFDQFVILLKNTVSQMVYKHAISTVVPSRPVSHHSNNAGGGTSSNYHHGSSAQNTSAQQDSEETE

Target: Hfq (Escherichia coli) (UniProt P0A6X3)
Assay: EMSA
Details: 20 nM RNA, Kd determined but value not in the material; 1 mM DTT, 1 mM MgCl2, 20 mM KCl, 10 mM Na phosphate pH 8.0, 12.5 ug/mL yeast tRNA; 15 min at 37 C; native 5% PAGE in 1X TBE at 4 C; recombinant protein; label: 5'-32P (Kd), unlabelled in competition; probe letters rebuilt from the primers and the genome

Sequence | binding result
GGACACCGUCGCUUAAAGUGACGGCAUAAUAAUAAAAAAAUGAAAUUCCUCUUUGACGGGCCAAUAGCGAUAUUGGCCAUUUUUUU [ChiX sRNA] | binds
GGGCGAUCAGGAAGACCCUCGCGGAGAACCUGAAAGCACGACAUUGCUCACAUUGCUUCCAGUAUUACUUAGCCAGCCGGGUGCUGGCUUUUUUUUU [RyhB sRNA] | binds
